Results are given in words; binding and its absence hold for the method and conditions named.
Key:
Experiment in all cases: SEC; gel filtration of the recombinant NHL domains without the expression tags; purification SEC on Superdex s75 (TRIM2, TRIM3) or s200 (TRIM71) in 20 mM HEPES pH 7.5, 200 mM NaCl, 0.5 mM TCEP; both purified
[1] = molecular target: NHL domain of human TRIM2 (aa 466–744) (human) (UniProt Q9C040)
[2] = molecular target: NHL domain of human TRIM3 (aa 466–744) (human) (UniProt O75382)
[3] = molecular target: NHL domain of human TRIM71 (aa 590–868) (human) (UniProt Q2Q1W2)

B1: NHL domain of human TRIM2 (aa 466–744) (domain or fragment, UniProt Q9C040 466-744)
chain: NPIEDDLIFRVGTKGRNKGEFTNLQGVAASTNGKILIADSNNQCVQIFSNDGQFKSRFGIRGRSPGQLQRPTGVAVHPSGDIIIADYDNKWVSIFSSDGKFKTKIGSGKLMGPKGVSVDRNGHIIVVDNKACCVFIFQPNGKIVTRFGSRGNGDRQFAGPHFAAVNSNNEIIITDFHNHSVKVFNQEGEFMLKFGSNGEGNGQFNAPTGVAVDSNGNIIVADWGNSRIQVFDGSGSFLSYINTSADPLYGPQGLALTSDGHVVVADSGNHCFKVYRYLQ
binding [1]: no binding

B2: NHL domain of human TRIM3 (aa 466–744) (domain or fragment, UniProt O75382 466-744)
chain: NPIEDELVFRVGSRGREKGEFTNLQGVSAASSGRIVVADSNNQCIQVFSNEGQFKFRFGVRGRSPGQLQRPTGVAVDTNGDIIVADYDNRWVSIFSPEGKFKTKIGAGRLMGPKGVAVDRNGHIIVVDNKSCCVFTFQPNGKLVGRFGGRGATDRHFAGPHFVAVNNKNEIVVTDFHNHSVKVYSADGEFLFKFGSHGEGNGQFNAPTGVAVDSNGNIIVADWGNSRIQVFDSSGSFLSYINTSAEPLYGPQGLALTSDGHVVVADAGNHCFKAYRYLQ
binding [2]: no binding

B3: NHL domain of human TRIM71 (aa 590–868) (domain or fragment, UniProt Q2Q1W2 590-868)
chain: GLPGLSFGSEGDSDGKLCRPWGVSVDKEGYIIVADRSNNRIQVFKPCGAFHHKFGTLGSRPGQFDRPAGVACDASRRIVVADKDNHRIQIFTFEGQFLLKFGEKGTKNGQFNYPWDVAVNSEGKILVSDTRNHRIQLFGPDGVFLNKYGFEGALWKHFDSPRGVAFNHEGHLVVTDFNNHRLLVIHPDCQSARFLGSEGTGNGQFLRPQGVAVDQEGRIIVADSRNHRVQMFESNGSFLCKFGAQGSGFGQMDRPSGIAITPDGMIVVVDFGNNRILVF
binding [3]: no binding

Source: publication PMC9634614
